# Results published in the supplement of paper PMC8728848.
# Some of the results follow.
# How the values were obtained:
# Assay in all cases: glycan array binding signal (z-score within array); higher = stronger binding
# Conditions in all cases: glycan notation: IUPAC condensed, linker removed
# [1] = target: Gal(b1-4)GalNAc(b1-3)[Fuc(a1-2)]Gal(b1-4)GlcNAc
# Procedure, shortened: (§1)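 Glycan array data were curated from 3228 arrays in the Consortium for Functional Glycomics database and kept only where the protein sequence was available. Glycan names were converted to IUPAC-condensed notation, and columns mapping to the same glycan were averaged. The binding signal is a within-array Z-score, averaged across arrays of the same protein sequence at different concentrations or buffers and across linkers. Negative Z-scores can be read as non-binding.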
# [2] = target: Gal(b1-4)Glc
# Procedure, shortened: as §1
# [3] = target: Gal(b1-4)Glc6S
# Procedure, shortened: as §1
# [4] = target: Gal(b1-4)GlcNAc
# Procedure, shortened: as §1
# [5] = target: Gal(b1-4)GlcNAc(a1-6)Gal(b1-4)GlcNAc
# Procedure, shortened: as §1
# [6] = target: Gal(b1-4)GlcNAc(b1-2)Man
# Procedure, shortened: as §1
# [7] = target: Gal(b1-4)GlcNAc(b1-2)Man(a1-3)Man(b1-4)GlcNAc(b1-4)GlcNAc
# Procedure, shortened: as §1
# [8] = target: Gal(b1-4)GlcNAc(b1-2)Man(a1-3)[Gal(b1-4)GlcNAc(b1-2)Man(a1-6)]Man(b1-4)GlcNAc(b1-4)GlcNAc
# Procedure, shortened: as §1
# [9] = target: Gal(b1-4)GlcNAc(b1-2)Man(a1-3)[Gal(b1-4)GlcNAc(b1-2)Man(a1-6)]Man(b1-4)GlcNAc(b1-4)[Fuc(a1-6)]GlcNAc
# Procedure, shortened: as §1
# [10] = target: Gal(b1-4)GlcNAc(b1-2)Man(a1-3)[Gal(b1-4)GlcNAc(b1-2)Man(a1-6)][Gal(b1-4)GlcNAc(b1-4)]Man(b1-4)GlcNAc(b1-4)[Fuc(a1-6)]GlcNAc
# Procedure, shortened: as §1
# [11] = target: Gal(b1-4)GlcNAc(b1-2)Man(a1-3)[Gal(b1-4)GlcNAc(b1-2)Man(a1-6)][GlcNAc(b1-4)]Man(b1-4)GlcNAc(b1-4)[Fuc(a1-6)]GlcNAc
# Procedure, shortened: as §1
# [12] = target: Gal(b1-4)GlcNAc(b1-2)Man(a1-3)[GlcNAc(b1-2)Man(a1-6)]Man(b1-4)GlcNAc(b1-4)GlcNAc
# Procedure, shortened: as §1
# [13] = target: Gal(b1-4)GlcNAc(b1-2)Man(a1-3)[GlcNAc(b1-4)][Gal(b1-4)GlcNAc(b1-2)Man(a1-6)]Man(b1-4)GlcNAc(b1-4)GlcNAc
# Procedure, shortened: as §1
# [14] = target: Gal(b1-4)GlcNAc(b1-2)Man(a1-3)[Man(a1-6)]Man(b1-4)GlcNAc(b1-4)GlcNAc
# Procedure, shortened: as §1
# [15] = target: Gal(b1-4)GlcNAc(b1-2)Man(a1-6)Man(b1-4)GlcNAc(b1-4)GlcNAc
# Procedure, shortened: as §1
# [16] = target: Gal(b1-4)GlcNAc(b1-2)Man(a1-6)[GlcNAc(b1-2)Man(a1-3)]Man(b1-4)GlcNAc(b1-4)GlcNAc
# Procedure, shortened: as §1
# [17] = target: Gal(b1-4)GlcNAc(b1-2)Man(a1-6)[Man(a1-3)]Man(b1-4)GlcNAc(b1-4)GlcNAc
# Procedure, shortened: as §1
# [18] = target: Gal(b1-4)GlcNAc(b1-2)[Gal(b1-4)GlcNAc(b1-4)]Man(a1-3)[Gal(b1-4)GlcNAc(b1-2)Man(a1-6)]Man(b1-4)GlcNAc(b1-4)GlcNAc
# Procedure, shortened: as §1
# [19] = target: Gal(b1-4)GlcNAc(b1-2)[Gal(b1-4)GlcNAc(b1-4)]Man(a1-3)[Gal(b1-4)GlcNAc(b1-2)[Gal(b1-4)GlcNAc(b1-6)]Man(a1-6)]Man(b1-4)GlcNAc(b1-4)GlcNAc
# Procedure, shortened: as §1
# [20] = target: Gal(b1-4)GlcNAc(b1-2)[Gal(b1-4)GlcNAc(b1-4)]Man(a1-3)[GlcNAc(b1-4)][Gal(b1-4)GlcNAc(b1-2)Man(a1-6)]Man(b1-4)GlcNAc(b1-4)GlcNAc
# Procedure, shortened: as §1
# [21] = target: Gal(b1-4)GlcNAc(b1-2)[Gal(b1-4)GlcNAc(b1-4)]Man(a1-3)[GlcNAc(b1-4)][Gal(b1-4)GlcNAc(b1-2)[Gal(b1-4)GlcNAc(b1-6)]Man(a1-6)]Man(b1-4)GlcNAc(b1-4)GlcNAc
# Procedure, shortened: as §1
# [22] = target: Gal(b1-4)GlcNAc(b1-2)[Gal(b1-4)GlcNAc(b1-6)]Man(a1-6)[Gal(b1-4)GlcNAc(b1-2)Man(a1-3)]Man(b1-4)GlcNAc(b1-4)GlcNAc
# Procedure, shortened: as §1
# [23] = target: Gal(b1-4)GlcNAc(b1-2)[Gal(b1-4)GlcNAc(b1-6)]Man(a1-6)[Gal(b1-4)GlcNAc(b1-2)Man(a1-3)]Man(b1-4)GlcNAc(b1-4)[Fuc(a1-6)]GlcNAc
# Procedure, shortened: as §1
# [24] = target: Gal(b1-4)GlcNAc(b1-2)[Gal(b1-4)GlcNAc(b1-6)]Man(a1-6)[GlcNAc(b1-4)][Gal(b1-4)GlcNAc(b1-2)Man(a1-3)]Man(b1-4)GlcNAc(b1-4)GlcNAc
# Procedure, shortened: as §1
# [25] = target: Gal(b1-4)GlcNAc(b1-2)[Gal(b1-4)GlcNAc(b1-6)]Man(a1-6)[GlcNAc(b1-4)][Gal(b1-4)GlcNAc(b1-2)[Gal(b1-4)GlcNAc(b1-4)]Man(a1-3)]Man(b1-4)GlcNAc(b1-4)[Fuc(a1-6)]GlcNAc
# Procedure, shortened: as §1
# [26] = target: Gal(b1-4)GlcNAc(b1-3)Gal(b1-3)GalNAc
# Procedure, shortened: as §1
# [27] = target: Gal(b1-4)GlcNAc(b1-3)Gal(b1-3)GlcNAc
# Procedure, shortened: as §1
# [28] = target: Gal(b1-4)GlcNAc(b1-3)Gal(b1-4)Glc
# Procedure, shortened: as §1
# [29] = target: Gal(b1-4)GlcNAc(b1-3)Gal(b1-4)GlcNAc
# Procedure, shortened: as §1
# [30] = target: Gal(b1-4)GlcNAc(b1-3)Gal(b1-4)GlcNAc(b1-2)Man(a1-3)[Gal(b1-4)GlcNAc(b1-3)Gal(b1-4)GlcNAc(b1-2)Man(a1-6)]Man(b1-4)GlcNAc(b1-4)GlcNAc
# Procedure, shortened: as §1
# [31] = target: Gal(b1-4)GlcNAc(b1-3)Gal(b1-4)GlcNAc(b1-2)Man(a1-3)[Gal(b1-4)GlcNAc(b1-3)Gal(b1-4)GlcNAc(b1-2)Man(a1-6)]Man(b1-4)GlcNAc(b1-4)[Fuc(a1-6)]GlcNAc
# Procedure, shortened: as §1
# [32] = target: Gal(b1-4)GlcNAc(b1-3)Gal(b1-4)GlcNAc(b1-2)[Gal(b1-4)GlcNAc(b1-3)Gal(b1-4)GlcNAc(b1-6)]Man(a1-6)[Gal(b1-4)GlcNAc(b1-3)Gal(b1-4)GlcNAc(b1-2)Man(a1-3)]Man(b1-4)GlcNAc(b1-4)GlcNAc
# Procedure, shortened: as §1
# [33] = target: Gal(b1-4)GlcNAc(b1-3)Gal(b1-4)GlcNAc(b1-2)[Gal(b1-4)GlcNAc(b1-3)Gal(b1-4)GlcNAc(b1-6)]Man(a1-6)[Gal(b1-4)GlcNAc(b1-3)Gal(b1-4)GlcNAc(b1-2)Man(a1-3)]Man(b1-4)GlcNAc(b1-4)[Fuc(a1-6)]GlcNAc
# Procedure, shortened: as §1
# [34] = target: Gal(b1-4)GlcNAc(b1-3)Gal(b1-4)GlcNAc(b1-3)Gal(b1-4)GlcNAc
# Procedure, shortened: as §1
# [35] = target: Gal(b1-4)GlcNAc(b1-3)Gal(b1-4)GlcNAc(b1-3)Gal(b1-4)GlcNAc(b1-2)Man(a1-3)[Gal(b1-4)GlcNAc(b1-3)Gal(b1-4)GlcNAc(b1-3)Gal(b1-4)GlcNAc(b1-2)Man(a1-6)]Man(b1-4)GlcNAc(b1-4)GlcNAc
# Procedure, shortened: as §1
# [36] = target: Gal(b1-4)GlcNAc(b1-3)Gal(b1-4)GlcNAc(b1-3)Gal(b1-4)GlcNAc(b1-2)Man(a1-3)[Gal(b1-4)GlcNAc(b1-3)Gal(b1-4)GlcNAc(b1-3)Gal(b1-4)GlcNAc(b1-2)Man(a1-6)]Man(b1-4)GlcNAc(b1-4)[Fuc(a1-6)]GlcNAc
# Procedure, shortened: as §1
# [37] = target: Gal(b1-4)GlcNAc(b1-3)Gal(b1-4)GlcNAc(b1-3)Gal(b1-4)GlcNAc(b1-2)[Gal(b1-4)GlcNAc(b1-3)Gal(b1-4)GlcNAc(b1-3)Gal(b1-4)GlcNAc(b1-6)]Man(a1-6)[Gal(b1-4)GlcNAc(b1-3)Gal(b1-4)GlcNAc(b1-3)Gal(b1-4)GlcNAc(b1-2)Man(a1-3)]Man(b1-4)GlcNAc(b1-4)[Fuc(a1-6)]GlcNAc
# Procedure, shortened: as §1
binder,measurement,setting,value
SP15308B-bot-339-22-339 (Bacteroides ovatus) (protein) NEWEDEQYEQYVSFKAPIASGSDGVTTIYVRYKDNGKVTYQLPIIVSGSTVNSQDRDIHIAVDKDTLKTLNIERFSLYRPELWYTEMEEDKYEFPETVHIPAGSCVELLNIDFNLQDIDMLEKWVLPLTIVDDGSYAYQSHPRKNYAKALLKVVPFNNYSGSYTASSMKVYTYINGKPDTNARTTDKRTGYVVDNNSIFFYAGLINEDMDKDMRKKYKINVHFKEDGTLDMKQDDPSNEMEFELIGTPTYSSTSVMDATRPYLERRYVQIMFEYDFQDFTYGGSGTEVIPIKYRVAGSMTLLRNINTQIPDEDQQIEW,glycan array binding signal (z-score),[1],0.059
same,glycan array binding signal (z-score),[2],0.03
same,glycan array binding signal (z-score),[3],0.058
same,glycan array binding signal (z-score),[4],-0.108
same,glycan array binding signal (z-score),[5],-0.061
same,glycan array binding signal (z-score),[6],-0.404
same,glycan array binding signal (z-score),[7],0.131
same,glycan array binding signal (z-score),[8],-0.534
same,glycan array binding signal (z-score),[9],0.069
same,glycan array binding signal (z-score),[10],-0.002
same,glycan array binding signal (z-score),[11],0.294
same,glycan array binding signal (z-score),[12],0.112
same,glycan array binding signal (z-score),[13],-0.757
same,glycan array binding signal (z-score),[14],0.022
same,glycan array binding signal (z-score),[15],-0.281
same,glycan array binding signal (z-score),[16],-0.154
same,glycan array binding signal (z-score),[17],-0.11
same,glycan array binding signal (z-score),[18],-0.285
same,glycan array binding signal (z-score),[19],0.109
same,glycan array binding signal (z-score),[20],-0.055
same,glycan array binding signal (z-score),[21],-0.148
same,glycan array binding signal (z-score),[22],0
same,glycan array binding signal (z-score),[23],1.76
same,glycan array binding signal (z-score),[24],0.006
same,glycan array binding signal (z-score),[25],-0.364
same,glycan array binding signal (z-score),[26],-0.381
same,glycan array binding signal (z-score),[27],-0.274
same,glycan array binding signal (z-score),[28],-0.016
same,glycan array binding signal (z-score),[29],-0.498
same,glycan array binding signal (z-score),[30],2.8
same,glycan array binding signal (z-score),[31],2.57
same,glycan array binding signal (z-score),[32],0.717
same,glycan array binding signal (z-score),[33],1.51
same,glycan array binding signal (z-score),[34],0.111
same,glycan array binding signal (z-score),[35],1.37
same,glycan array binding signal (z-score),[36],0.481
same,glycan array binding signal (z-score),[37],2.24

# Three entries from above, bar-delimited.
binder | measurement | setting | value
SP15308B-bot-339-22-339 (Bacteroides ovatus) (protein) NEWEDEQYEQYVSFKAPIASGSDGVTTIYVRYKDNGKVTYQLPIIVSGSTVNSQDRDIHIAVDKDTLKTLNIERFSLYRPELWYTEMEEDKYEFPETVHIPAGSCVELLNIDFNLQDIDMLEKWVLPLTIVDDGSYAYQSHPRKNYAKALLKVVPFNNYSGSYTASSMKVYTYINGKPDTNARTTDKRTGYVVDNNSIFFYAGLINEDMDKDMRKKYKINVHFKEDGTLDMKQDDPSNEMEFELIGTPTYSSTSVMDATRPYLERRYVQIMFEYDFQDFTYGGSGTEVIPIKYRVAGSMTLLRNINTQIPDEDQQIEW | glycan array binding signal (z-score) | [23] | 1.76
same | glycan array binding signal (z-score) | [24] | 0.006
same | glycan array binding signal (z-score) | [25] | -0.364
